Values from PubChem BioAssay AID743454 (Peter MacCallum Cancer Centre, 2014)
The deposit covers about 18,000 reagents; this is a part drawn at random. Of all reagents, 450 (2.5%) got an active call. 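Single biological run; no consistent viability z cut-off exists, so the class columns, not z-scores, define the calls.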 Unmarked entries are inactive.

Screen: 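Knock-downs lowering viability or raising caspase 3/7 activity in vorinostat-treated resistant cells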 (primary screen)
System: human HCT116-VR colon cancer cells, selected for vorinostat resistance
Reagents: siRNA pool against human genes, 40 nM siRNA pool
Timing: vorinostat for 24 h, read-out about 72 h after transfection
Treatment: vorinostat at 2.5 µM final
Detection: 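Cell viability by CellTiter-Fluor and caspase 3/7 activity by luminescence, each scaled to mock wells per plate, duplicates averaged, then robust z-scored over all plates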
Reading the numbers: viability robust z-score: higher = more viable cells than screen typical; caspase robust z-score: higher = more caspase 3/7 activity than screen typical
Rule for the call: 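Hits are knock-downs in viability class RV1/RV2 or caspase class CA1/CA2, excluding ones that killed cells in the no-drug cell-count arm; hits then retested with single siRNAs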

| gene | viability hit class | caspase hit class | viability robust z-score | caspase robust z-score |
| --- | --- | --- | --- | --- |
| CENPE | no change | no change | -1.5 | 1.72 |
| CACNA1G | no change | no change | 1.01 | 0.72 |
| PRSS58 | no change | no change | 0.16 | -0.56 |
| TC2N | no change | no change | -0.19 | -0.22 |
| ZMYM3 | no change | no change | 2.28 | -0.27 |
| CCDC32 | no change | no change | -1.18 | 0.77 |
| KCNA5 | no change | no change | -1.09 | -0.01 |
| GHSR | no change | no change | -1.67 | -0.66 |
| KIR3DX1 | no change | no change | -1.08 | -0.32 |
| BCR | no change | no change | -2.16 | 1.82 |
| LMTK3 | no change (active) | CA2 (caspase activation) | -1.35 | 3.68 |
| TOB1 | no change | no change | -0.02 | 4 |
| MRPL39 | no change | no change | 0.6 | -0.35 |
| ABCB6 | no change | no change | 0.82 | 0.01 |
| OR12D2 | no change | no change | -0.02 | -0.42 |
| TMEM268 | no change | no change | -0.59 | -0.93 |
| OR1D4 | no change | no change | -0.45 | 3.13 |
| OPTN | no change | no change | -0.28 | 2.34 |
| TMEM132E-DT | no change | no change | -0.24 | 2.53 |

Records above with an active call (1):
| gene | viability hit class | caspase hit class | viability robust z-score | caspase robust z-score |
| --- | --- | --- | --- | --- |
| LMTK3 | no change (active) | CA2 (caspase activation) | -1.35 | 3.68 |

More results follow:
| gene | viability hit class | caspase hit class | viability robust z-score | caspase robust z-score |
| --- | --- | --- | --- | --- |
| CLDN16 | no change | no change | -0.15 | -0.64 |
| ALPK2 | no change | no change | -1.14 | -0.36 |
| CD40LG | no change | no change | -0.05 | 0.81 |
| CCND1 | no change | no change | 0.38 | -0.71 |
| ZNF704 | no change | no change | -0.7 | 0.18 |
| SF3B4 | no change | no change | -2.46 | 2.37 |
| ABHD3 | no change | no change | -0.29 | -0.48 |
| MACF1 | no change | no change | -1.3 | 0.57 |
| RARRES2 | no change | no change | 0.53 | 0.76 |
| ZNF461 | no change | no change | -1.05 | -0.93 |
| MATN4 | no change | no change | -2 | 2.34 |
| CT47A2 | no change | no change | 0.4 | 3.23 |
| MTA2 | no change | no change | -1.41 | 3.32 |
| GPSM3 | no change | no change | 0.52 | 1.12 |
| SUSD6 | no change | no change | 0.13 | 1.12 |
| GRTP1 | no change | no change | -0.15 | -0.68 |
| POMC | no change | no change | 0.69 | -0.25 |
| ZNF354C | no change | no change | 0.49 | -0.24 |
| CCT4 | no change | no change | -2.23 | 2.41 |
| ANP32D | no change | no change | -1.04 | -0.01 |
| ESYT1 | no change | no change | 0.5 | 1.95 |
| SETD9 | no change | no change | 0.77 | 1.5 |
| RINL | no change | no change | -0.31 | -0.5 |
| GNAI2 | no change | no change | 1.66 | 1.92 |
| CCNB3 | no change | no change | 1.32 | -0.68 |
| PLAC8L1 | no change | no change | 0.25 | -0.73 |
| MARF1 | no change | no change | 1.21 | -0.5 |
| TBX3 | no change | no change | -0.04 | -0.62 |
| LRRTM2 | no change | no change | -0.68 | -1.06 |
| RAB7B | no change | no change | -1.08 | 0.89 |
| INCENP | no change | no change | -1.04 | 2.35 |
| POLR3A | no change | no change | -2.38 | -1.14 |
| KDM5C | no change | no change | 0.12 | -0.36 |
| NHLRC3 | no change | no change | -0.55 | -0.06 |
| NOMO2 | no change | no change | 0.06 | -0.52 |
| RPS29 | no change | no change | -4.52 | -1.58 |
| COX4I1 | no change | no change | 0.7 | -0.64 |
| ZNF621 | no change | no change | 0.44 | -0.3 |
